From article PMC8938454
No constants are given. Whether binding was seen depends on the method and setting. For part of these data: In cells and extracts the contact can be indirect. Some results given as binding are weak or reduced against the parent protein; the word gives no strength. For part of these data: Sequences can lack the tags named with a protein. One block for each molecule: values may come before it.

Protein sequences, listed by entry. Tags and fused reporters are not part of them.
UniProt P51149: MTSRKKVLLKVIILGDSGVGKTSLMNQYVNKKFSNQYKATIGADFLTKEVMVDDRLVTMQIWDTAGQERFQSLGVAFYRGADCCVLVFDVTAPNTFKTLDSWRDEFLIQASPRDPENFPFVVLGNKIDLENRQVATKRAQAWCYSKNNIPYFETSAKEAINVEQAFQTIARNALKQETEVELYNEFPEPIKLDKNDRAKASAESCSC

What was measured:
[1] = biological target: T1, RUFY3, endogenous in HEK293T (human (endogenous in HEK293T)) (UniProt Q7L099); assay: co-IP; endogenous IP from HEK293T cell lysates with antibody-conjugated resin (anti-Arl8, anti-RUFY3 or anti-JIP4; mouse IgG resin as control); in Fig. 5l cells treated with control or RUFY3 siRNA
T1 sequence: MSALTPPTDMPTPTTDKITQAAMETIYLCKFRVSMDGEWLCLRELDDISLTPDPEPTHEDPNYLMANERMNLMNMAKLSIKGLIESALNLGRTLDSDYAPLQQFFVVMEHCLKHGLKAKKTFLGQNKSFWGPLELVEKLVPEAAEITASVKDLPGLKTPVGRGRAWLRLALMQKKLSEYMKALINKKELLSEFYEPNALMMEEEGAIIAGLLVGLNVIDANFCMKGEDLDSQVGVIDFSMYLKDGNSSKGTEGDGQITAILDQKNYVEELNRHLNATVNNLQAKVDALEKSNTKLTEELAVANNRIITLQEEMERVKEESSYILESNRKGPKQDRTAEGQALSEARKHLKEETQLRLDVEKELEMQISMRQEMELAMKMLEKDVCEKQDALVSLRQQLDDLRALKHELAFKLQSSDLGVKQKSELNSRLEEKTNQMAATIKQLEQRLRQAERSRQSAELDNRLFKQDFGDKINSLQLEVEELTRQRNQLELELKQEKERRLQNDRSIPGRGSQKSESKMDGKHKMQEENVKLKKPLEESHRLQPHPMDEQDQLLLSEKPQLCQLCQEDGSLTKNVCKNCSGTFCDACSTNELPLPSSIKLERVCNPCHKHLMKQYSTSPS

[2] = biological target: T2, JIP4/SPAG9 scaffolding protein, endogenous in HEK293T (human (endogenous in HEK293T)) (UniProt O60271); assay: as above
T2 sequence: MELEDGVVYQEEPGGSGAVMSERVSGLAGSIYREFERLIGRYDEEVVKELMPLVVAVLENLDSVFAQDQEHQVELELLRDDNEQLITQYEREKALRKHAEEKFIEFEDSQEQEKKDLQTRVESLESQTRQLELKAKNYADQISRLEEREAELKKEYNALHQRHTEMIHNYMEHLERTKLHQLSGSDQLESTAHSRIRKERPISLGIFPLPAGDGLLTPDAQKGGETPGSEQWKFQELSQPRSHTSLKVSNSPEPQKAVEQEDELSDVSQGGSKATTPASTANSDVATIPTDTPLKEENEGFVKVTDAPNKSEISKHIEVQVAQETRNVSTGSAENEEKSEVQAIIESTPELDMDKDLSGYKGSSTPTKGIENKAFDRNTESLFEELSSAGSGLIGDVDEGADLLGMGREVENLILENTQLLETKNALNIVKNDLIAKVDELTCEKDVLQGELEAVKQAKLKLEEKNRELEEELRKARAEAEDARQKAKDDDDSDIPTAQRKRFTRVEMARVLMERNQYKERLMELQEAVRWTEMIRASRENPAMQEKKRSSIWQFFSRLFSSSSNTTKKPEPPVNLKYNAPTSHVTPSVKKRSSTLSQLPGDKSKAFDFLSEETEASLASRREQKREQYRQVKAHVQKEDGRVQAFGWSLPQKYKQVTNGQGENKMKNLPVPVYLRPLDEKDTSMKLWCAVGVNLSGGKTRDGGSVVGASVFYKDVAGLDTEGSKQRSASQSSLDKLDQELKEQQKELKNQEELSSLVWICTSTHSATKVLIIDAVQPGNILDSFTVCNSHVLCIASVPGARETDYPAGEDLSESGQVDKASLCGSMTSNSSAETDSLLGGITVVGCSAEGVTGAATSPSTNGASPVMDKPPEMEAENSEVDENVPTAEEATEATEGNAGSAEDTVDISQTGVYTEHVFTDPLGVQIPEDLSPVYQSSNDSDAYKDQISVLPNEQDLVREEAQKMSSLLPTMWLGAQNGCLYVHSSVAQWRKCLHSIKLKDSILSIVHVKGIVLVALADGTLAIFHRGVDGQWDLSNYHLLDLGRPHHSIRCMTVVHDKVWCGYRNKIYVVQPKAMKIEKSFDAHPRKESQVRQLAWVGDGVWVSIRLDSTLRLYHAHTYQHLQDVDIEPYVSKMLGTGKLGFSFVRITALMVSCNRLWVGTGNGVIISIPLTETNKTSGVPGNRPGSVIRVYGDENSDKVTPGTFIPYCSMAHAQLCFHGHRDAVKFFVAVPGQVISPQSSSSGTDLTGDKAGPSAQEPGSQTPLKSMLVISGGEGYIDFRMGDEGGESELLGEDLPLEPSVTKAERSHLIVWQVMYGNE

[3] = biological target: Rab7, yeast two-hybrid fusion (UniProt P51149); assay: two-hybrid; small-scale assay: GAL4-AD and GAL4-BD fusion plasmids co-transformed in S. cerevisiae Y2HGold; spotted on -Leu/-Trp (viability) and -Leu/-Trp/-His (interaction), 30 °C
[4] = biological target: T3, GST-tagged-RUFY3 (WT) (human) (UniProt Q7L099); assay: pull-down; GST or GST-RUFY3 on glutathione beads incubated with semi-purified FLAG-JIP4 (eluted from anti-FLAG beads) in NP-40 buffer; blot with anti-FLAG; both purified
T3 sequence: T1 sequence

- binding [1]: binds
- binding [2]: binds
Molecule: dynactin 1/p150glued (DCTN1), endogenous in HEK293T (from UniProt Q14203-1 1-1278)

- binding [2]: binds
B1: RUFY3, endogenous in HEK293T (protein, UniProt Q7L099-3 1-620)
chain: T1 sequence

B2: RUN and FYVE domain-containing protein 3 (RUFY3), transcript variant 1, yeast two-hybrid fusion (protein, UniProt Q7L099-3 1-620)
chain: T1 sequence
- binding [3]: no binding

- binding [4]: binds
B3: FLAG-tagged-JIP4, semi-purified (protein, UniProt O60271 1-1321)
chain: T2 sequence

- binding [1]: binds
B4: JIP4/SPAG9 scaffolding protein, endogenous in HEK293T (protein, UniProt O60271 1-1321)
chain: T2 sequence
